In the supplement of paper PMC10849652:
Some of the results follow.

Sequences of proteins named here, by UniProt entry; tags and fusion partners are left off. A change or cut given only in a name is not applied to a line headed by its entry.
UniProt O60884: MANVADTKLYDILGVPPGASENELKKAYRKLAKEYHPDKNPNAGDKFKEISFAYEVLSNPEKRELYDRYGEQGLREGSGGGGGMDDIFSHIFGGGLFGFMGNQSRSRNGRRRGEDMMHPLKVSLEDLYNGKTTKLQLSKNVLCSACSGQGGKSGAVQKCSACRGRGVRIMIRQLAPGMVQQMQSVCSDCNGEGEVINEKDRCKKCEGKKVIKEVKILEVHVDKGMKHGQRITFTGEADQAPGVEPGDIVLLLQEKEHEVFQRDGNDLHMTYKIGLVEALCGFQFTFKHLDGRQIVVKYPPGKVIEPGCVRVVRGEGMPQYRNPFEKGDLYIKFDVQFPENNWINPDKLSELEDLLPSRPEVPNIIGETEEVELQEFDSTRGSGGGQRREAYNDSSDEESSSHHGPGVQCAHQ
UniProt Q9NVR5: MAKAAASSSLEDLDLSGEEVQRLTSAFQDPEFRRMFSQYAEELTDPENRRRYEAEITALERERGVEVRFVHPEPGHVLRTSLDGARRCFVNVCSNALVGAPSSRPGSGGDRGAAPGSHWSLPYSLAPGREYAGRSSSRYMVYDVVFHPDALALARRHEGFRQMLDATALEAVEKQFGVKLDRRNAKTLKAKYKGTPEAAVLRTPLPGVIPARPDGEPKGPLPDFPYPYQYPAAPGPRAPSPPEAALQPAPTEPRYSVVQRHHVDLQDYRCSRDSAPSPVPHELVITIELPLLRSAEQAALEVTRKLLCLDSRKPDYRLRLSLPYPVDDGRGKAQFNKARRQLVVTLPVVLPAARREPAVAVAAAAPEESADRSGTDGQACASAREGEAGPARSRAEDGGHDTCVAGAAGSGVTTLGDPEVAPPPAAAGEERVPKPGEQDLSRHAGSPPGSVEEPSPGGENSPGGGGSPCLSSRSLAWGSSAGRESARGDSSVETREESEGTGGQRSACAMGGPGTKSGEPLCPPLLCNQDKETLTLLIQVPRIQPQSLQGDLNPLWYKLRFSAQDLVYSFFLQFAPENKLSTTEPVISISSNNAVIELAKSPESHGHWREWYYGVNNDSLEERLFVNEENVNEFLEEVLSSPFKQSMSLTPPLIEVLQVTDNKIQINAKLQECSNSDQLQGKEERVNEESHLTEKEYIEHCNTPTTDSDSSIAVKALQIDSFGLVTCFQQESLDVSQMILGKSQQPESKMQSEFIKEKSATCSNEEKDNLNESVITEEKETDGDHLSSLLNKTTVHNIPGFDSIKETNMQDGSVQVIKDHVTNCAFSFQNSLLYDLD
UniProt Q99766: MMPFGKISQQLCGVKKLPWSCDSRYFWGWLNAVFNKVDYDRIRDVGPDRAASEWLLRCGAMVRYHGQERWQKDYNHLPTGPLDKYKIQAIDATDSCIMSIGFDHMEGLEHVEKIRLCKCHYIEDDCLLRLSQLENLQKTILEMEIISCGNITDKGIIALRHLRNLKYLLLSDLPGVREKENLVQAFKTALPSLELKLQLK
UniProt O60832: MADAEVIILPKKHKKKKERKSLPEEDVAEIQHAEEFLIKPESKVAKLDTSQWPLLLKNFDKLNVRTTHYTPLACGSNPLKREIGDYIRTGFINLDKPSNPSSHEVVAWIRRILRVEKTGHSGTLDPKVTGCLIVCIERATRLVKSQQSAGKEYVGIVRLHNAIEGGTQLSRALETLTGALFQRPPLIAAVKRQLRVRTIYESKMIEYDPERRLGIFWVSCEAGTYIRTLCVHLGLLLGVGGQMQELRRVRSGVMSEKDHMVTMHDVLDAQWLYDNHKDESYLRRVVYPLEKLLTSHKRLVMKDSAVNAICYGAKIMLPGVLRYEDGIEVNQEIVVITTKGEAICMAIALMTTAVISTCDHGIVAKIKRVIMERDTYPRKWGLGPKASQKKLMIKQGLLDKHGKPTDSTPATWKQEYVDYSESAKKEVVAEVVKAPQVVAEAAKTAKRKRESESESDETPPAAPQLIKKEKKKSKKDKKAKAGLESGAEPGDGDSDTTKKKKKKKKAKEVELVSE
UniProt P50570: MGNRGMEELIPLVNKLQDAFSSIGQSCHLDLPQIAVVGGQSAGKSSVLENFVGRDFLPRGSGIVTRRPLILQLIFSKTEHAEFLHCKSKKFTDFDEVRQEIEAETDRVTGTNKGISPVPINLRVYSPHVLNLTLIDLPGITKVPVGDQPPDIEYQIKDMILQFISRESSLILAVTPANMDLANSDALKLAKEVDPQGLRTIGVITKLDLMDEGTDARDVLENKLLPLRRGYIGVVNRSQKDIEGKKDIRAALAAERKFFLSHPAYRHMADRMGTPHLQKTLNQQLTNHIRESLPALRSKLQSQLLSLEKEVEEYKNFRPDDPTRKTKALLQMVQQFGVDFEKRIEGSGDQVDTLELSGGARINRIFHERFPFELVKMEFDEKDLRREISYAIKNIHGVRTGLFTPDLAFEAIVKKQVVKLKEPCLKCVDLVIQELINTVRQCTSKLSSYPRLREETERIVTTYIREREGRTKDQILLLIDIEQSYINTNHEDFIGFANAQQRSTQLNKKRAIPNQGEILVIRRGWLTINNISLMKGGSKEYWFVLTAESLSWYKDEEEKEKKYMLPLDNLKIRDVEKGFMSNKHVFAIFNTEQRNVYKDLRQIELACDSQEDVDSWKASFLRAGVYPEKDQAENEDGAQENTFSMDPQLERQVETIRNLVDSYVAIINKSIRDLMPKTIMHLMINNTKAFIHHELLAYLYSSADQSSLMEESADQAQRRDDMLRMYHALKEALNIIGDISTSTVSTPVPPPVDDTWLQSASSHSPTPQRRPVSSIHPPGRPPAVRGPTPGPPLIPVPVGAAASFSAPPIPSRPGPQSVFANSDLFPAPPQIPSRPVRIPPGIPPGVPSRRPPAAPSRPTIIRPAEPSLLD
UniProt P25685, whole entry, looked up: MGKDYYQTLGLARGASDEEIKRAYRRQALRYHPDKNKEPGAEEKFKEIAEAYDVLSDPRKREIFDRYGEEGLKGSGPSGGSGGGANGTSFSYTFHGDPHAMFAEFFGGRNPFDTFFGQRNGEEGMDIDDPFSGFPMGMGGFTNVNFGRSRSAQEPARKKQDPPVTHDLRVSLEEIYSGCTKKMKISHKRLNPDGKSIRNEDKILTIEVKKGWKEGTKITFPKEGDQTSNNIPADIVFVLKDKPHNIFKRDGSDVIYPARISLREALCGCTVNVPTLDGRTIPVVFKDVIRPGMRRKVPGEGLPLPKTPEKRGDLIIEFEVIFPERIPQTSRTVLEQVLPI
UniProt Q9NPF5, whole entry, looked up: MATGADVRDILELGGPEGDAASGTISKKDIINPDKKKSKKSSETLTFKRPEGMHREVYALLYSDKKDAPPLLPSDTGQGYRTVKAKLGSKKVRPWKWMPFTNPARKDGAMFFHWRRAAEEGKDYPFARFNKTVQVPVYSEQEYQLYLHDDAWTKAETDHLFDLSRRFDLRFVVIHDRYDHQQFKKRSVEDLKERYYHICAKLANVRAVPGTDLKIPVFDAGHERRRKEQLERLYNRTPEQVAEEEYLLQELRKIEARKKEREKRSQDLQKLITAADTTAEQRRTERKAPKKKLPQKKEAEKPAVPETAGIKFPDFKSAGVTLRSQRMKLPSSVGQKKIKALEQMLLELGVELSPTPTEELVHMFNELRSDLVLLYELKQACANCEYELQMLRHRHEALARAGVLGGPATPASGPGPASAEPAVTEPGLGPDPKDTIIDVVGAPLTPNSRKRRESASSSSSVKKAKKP
UniProt P49366: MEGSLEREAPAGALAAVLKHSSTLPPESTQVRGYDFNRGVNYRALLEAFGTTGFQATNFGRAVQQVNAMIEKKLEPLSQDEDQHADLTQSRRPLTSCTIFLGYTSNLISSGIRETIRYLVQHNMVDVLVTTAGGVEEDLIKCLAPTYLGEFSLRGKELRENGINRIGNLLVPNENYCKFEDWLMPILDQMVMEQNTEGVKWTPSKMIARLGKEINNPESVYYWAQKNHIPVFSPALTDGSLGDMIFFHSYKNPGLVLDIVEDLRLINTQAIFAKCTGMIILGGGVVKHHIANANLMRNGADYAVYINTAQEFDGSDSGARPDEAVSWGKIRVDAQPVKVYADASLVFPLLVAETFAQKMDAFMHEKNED
UniProt Q8IY37: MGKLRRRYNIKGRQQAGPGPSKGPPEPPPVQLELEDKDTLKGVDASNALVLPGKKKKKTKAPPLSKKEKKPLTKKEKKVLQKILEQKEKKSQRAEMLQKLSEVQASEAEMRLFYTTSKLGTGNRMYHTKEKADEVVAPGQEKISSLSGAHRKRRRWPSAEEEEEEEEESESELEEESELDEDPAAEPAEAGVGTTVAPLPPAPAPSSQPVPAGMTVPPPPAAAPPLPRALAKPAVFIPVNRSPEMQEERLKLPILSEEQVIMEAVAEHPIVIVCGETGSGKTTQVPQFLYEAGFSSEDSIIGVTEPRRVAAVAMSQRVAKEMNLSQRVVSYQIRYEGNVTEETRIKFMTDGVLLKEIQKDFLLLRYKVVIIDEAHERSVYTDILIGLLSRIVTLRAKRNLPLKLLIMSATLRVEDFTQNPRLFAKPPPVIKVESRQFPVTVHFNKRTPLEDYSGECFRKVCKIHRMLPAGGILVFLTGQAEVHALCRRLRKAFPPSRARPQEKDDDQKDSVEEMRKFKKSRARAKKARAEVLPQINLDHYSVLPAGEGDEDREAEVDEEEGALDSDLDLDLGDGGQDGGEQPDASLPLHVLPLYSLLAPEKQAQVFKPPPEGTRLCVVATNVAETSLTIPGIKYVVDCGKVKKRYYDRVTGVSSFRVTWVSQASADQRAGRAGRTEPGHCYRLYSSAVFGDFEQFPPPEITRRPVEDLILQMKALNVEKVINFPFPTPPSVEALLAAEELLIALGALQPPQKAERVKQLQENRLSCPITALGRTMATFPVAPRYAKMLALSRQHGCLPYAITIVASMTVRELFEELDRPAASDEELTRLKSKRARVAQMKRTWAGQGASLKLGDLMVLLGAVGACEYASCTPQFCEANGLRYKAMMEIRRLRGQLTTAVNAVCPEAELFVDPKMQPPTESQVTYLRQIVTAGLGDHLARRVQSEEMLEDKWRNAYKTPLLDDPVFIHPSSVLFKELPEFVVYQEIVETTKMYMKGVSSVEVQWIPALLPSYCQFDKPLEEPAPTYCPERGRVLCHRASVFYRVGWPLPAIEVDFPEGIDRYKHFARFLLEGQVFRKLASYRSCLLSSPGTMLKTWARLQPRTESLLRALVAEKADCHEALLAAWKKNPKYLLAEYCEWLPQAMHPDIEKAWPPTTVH
UniProt Q92796: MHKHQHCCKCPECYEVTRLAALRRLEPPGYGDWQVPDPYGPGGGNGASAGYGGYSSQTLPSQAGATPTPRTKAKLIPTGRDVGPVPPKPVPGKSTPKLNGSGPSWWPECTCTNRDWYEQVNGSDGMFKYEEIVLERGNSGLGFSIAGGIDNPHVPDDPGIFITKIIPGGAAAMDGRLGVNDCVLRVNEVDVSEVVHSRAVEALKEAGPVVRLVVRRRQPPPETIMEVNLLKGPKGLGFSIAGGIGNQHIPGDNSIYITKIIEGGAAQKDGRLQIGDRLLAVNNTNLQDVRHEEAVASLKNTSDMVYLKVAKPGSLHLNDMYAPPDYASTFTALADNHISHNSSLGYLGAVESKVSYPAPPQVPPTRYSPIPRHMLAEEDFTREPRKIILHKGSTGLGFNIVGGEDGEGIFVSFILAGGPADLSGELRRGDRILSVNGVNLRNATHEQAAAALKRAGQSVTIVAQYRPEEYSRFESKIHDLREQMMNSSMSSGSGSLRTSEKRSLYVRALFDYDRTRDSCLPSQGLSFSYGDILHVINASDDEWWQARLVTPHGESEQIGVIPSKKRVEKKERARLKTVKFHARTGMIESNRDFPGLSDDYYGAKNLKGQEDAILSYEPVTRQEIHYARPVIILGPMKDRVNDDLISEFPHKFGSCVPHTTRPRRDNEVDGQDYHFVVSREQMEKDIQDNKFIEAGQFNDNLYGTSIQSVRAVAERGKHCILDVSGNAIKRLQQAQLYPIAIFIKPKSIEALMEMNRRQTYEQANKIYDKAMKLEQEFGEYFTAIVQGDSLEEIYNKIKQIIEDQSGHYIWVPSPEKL
UniProt Q7L591: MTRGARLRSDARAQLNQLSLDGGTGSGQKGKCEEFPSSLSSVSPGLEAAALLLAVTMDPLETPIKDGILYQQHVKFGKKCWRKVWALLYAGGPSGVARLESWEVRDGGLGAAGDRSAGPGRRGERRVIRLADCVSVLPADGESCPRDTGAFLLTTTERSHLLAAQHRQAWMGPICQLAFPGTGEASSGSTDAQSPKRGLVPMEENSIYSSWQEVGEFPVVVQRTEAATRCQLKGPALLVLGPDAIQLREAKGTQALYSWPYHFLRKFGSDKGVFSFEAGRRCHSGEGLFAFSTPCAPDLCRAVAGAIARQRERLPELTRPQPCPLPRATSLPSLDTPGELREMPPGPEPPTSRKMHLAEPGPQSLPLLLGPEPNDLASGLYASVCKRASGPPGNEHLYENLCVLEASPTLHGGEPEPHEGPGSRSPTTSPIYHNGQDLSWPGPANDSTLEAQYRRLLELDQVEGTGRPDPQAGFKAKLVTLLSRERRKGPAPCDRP

How the values were obtained:
Assay in all cases: log2 fold change, soluble protein after heating vs DMSO (PISA); higher = thermal stabilisation; K562 lysate, 10 uM; active = over 0.2 and 3.5 SD of the protein, either way, in both replicates (recomputed)
lapatinib = compound: CS(=O)(=O)CCNCc1ccc(-c2ccc3ncnc(Nc4ccc(OCc5cccc(F)c5)c(Cl)c4)c3c2)o1 [lapatinib]
Outline: (§1)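 Thermal stability, expressed as log-two fold change relative to solvent controls, is given from duplicates. Crude K562 extract in PBS pH 7.4 with 1 mM MgCl2, at 1 mg/mL protein, was treated with 10 μM compound for 30 min and heated in aliquots for 3 min across 48°C-58°C. After pooling, adjustment to 0.5% NP-40 at 4°C and centrifugation at 21,000xg for 90 min, supernatant protein was measured by TMTpro 16plex LC-MS/MS with channel sums equalised.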

pictilisib = compound: CS(=O)(=O)N1CCN(Cc2cc3nc(-c4cccc5[nH]ncc45)nc(N4CCOCC4)c3s2)CC1 [pictilisib]
Outline: as §1

crizotinib = compound: C[C@@H](Oc1cc(-c2cnn(C3CCNCC3)c2)cnc1N)c1c(Cl)ccc(F)c1Cl [crizotinib]
Outline: as §1

[1] = compound: C[C@H](C1=CC=C(C=C1)C(=O)NC2=C3C=CNC3=NC=C2)N
Outline: as §1

duvelisib = compound: C[C@H](Nc1ncnc2nc[nH]c12)c1cc2cccc(Cl)c2c(=O)n1-c1ccccc1 [duvelisib]
Outline: as §1

gandotinib = compound: Cc1cc(Nc2cc(CN3CCOCC3)c3nc(C)c(Cc4ccc(Cl)cc4F)n3n2)n[nH]1 [gandotinib]
Outline: as §1

tozasertib = compound: Cc1cc(Nc2cc(N3CCN(C)CC3)nc(Sc3ccc(NC(=O)C4CC4)cc3)n2)n[nH]1 [tozasertib]
Outline: as §1

doramapimod = compound: Cc1ccc(-n2nc(C(C)(C)C)cc2NC(=O)Nc2ccc(OCCN3CCOCC3)c3ccccc23)cc1 [doramapimod]
Outline: as §1

bafetinib = compound: Cc1ccc(NC(=O)c2ccc(CN3CC[C@H](N(C)C)C3)c(C(F)(F)F)c2)cc1Nc1nccc(-c2cncnc2)n1 [bafetinib]
Outline: as §1

[2] = compound: Cc1cccc(CC(=O)N2CCc3c2ccc(-c2cn(C)c4ncnc(N)c24)c3F)n1
Outline: as §1

nilotinib = compound: Cc1cn(-c2cc(NC(=O)c3ccc(C)c(Nc4nccc(-c5cccnc5)n4)c3)cc(C(F)(F)F)c2)cn1 [nilotinib]
Outline: as §1

[3] = compound: Cc1nc(Nc2n[nH]c3c2CN(C(=O)N[C@H](CN(C)C)c2ccccc2)C3(C)C)c2sccc2n1
Outline: as §1

dasatinib = compound: Cc1nc(Nc2ncc(C(=O)Nc3c(C)cccc3Cl)s2)cc(N2CCN(CCO)CC2)n1 [dasatinib]
Outline: as §1

[4] = compound: Cc1ncc(-c2ccnc(Nc3ccc(S(C)(=O)=O)cc3)n2)n1C(C)C
Outline: as §1

[5] = compound: Cn1cc(-c2ccc3c(c2)CCN3C(=O)Cc2cccc(C(F)(F)F)c2)c2c(N)ncnc21
Outline: as §1

quisinostat = compound: Cn1cc(CNCC2CCN(c3ncc(C(=O)NO)cn3)CC2)c2ccccc21 [quisinostat]
Outline: as §1

tipifarnib = compound: Cn1cncc1[C@@](N)(c1ccc(Cl)cc1)c1ccc2c(c1)c(-c1cccc(Cl)c1)cc(=O)n2C [tipifarnib]
Outline: as §1

[6] = compound: NC(=O)Nc1cc(-c2cccc(F)c2)sc1C(=O)N[C@H]1CCCNC1
Outline: as §1

[7] = compound: NC(=O)c1cnc(N[C@@H]2CCCC[C@@H]2N)nc1Nc1cccc(-n2nccn2)c1
Outline: as §1

[8] = compound: NC1(c2ccc(-c3nc4ccn5c(=O)[nH]nc5c4cc3-c3ccccc3)cc2)CCC1
Outline: as §1

Measured: log2 fold change

DNAJA2 (UniProt O60884)
inactive: lapatinib -0.027 | pictilisib 0.056 | crizotinib 0 | [1] 0.045 | duvelisib 0.018 | gandotinib -0.018 | tozasertib -0.009 | doramapimod 0.035 | bafetinib -0.006 | [2] 0.018 | nilotinib -0.002 | [3] 0.051 | dasatinib 0.009 | [4] 0.028 | [5] -0.007 | quisinostat -0.001 | tipifarnib -0.038 | [6] -0.008 | [7] -0.027 | [8] 0.025

DICER1 (UniProt Q9UPY3)
inactive: lapatinib -0.02 | pictilisib -0.071 | crizotinib -0.075 | [1] -0.075 | duvelisib -0.05 | gandotinib 0.02 | tozasertib 0.035 | doramapimod 0.039 | bafetinib -0.11 | [2] 0.084 | nilotinib 0.014 | [3] -0.014 | dasatinib -0.005 | [4] 0.045 | [5] -0.03 | quisinostat -0.072 | tipifarnib 0 | [6] 0.051 | [7] 0.045 | [8] -0.068

DNAAF2 (UniProt Q9NVR5)
inactive: lapatinib -0.007 | pictilisib 0 | crizotinib 0.036 | [1] 0.011 | duvelisib 0.03 | gandotinib 0.016 | tozasertib 0.053 | doramapimod 0.004 | bafetinib 0.017 | [2] 0 | nilotinib -0.022 | [3] 0.05 | dasatinib 0.005 | [4] 0.034 | [5] -0.017 | quisinostat -0.011 | tipifarnib -0.002 | [6] -0.011 | [7] 0.008 | [8] -0.012

DMAC2L (UniProt Q99766)
inactive: lapatinib -0.021 | pictilisib -0.036 | crizotinib 0.012 | [1] -0.048 | duvelisib -0.037 | gandotinib 0.047 | tozasertib 0.087 | doramapimod 0.002 | bafetinib 0.009 | [2] 0.1 | nilotinib -0.021 | [3] 0.001 | dasatinib 0.059 | [4] -0.04 | [5] -0.009 | quisinostat 0.012 | tipifarnib -0.017 | [6] -0.032 | [7] -0.006 | [8] 0.111

DKC1 (UniProt O60832)
inactive: lapatinib -0.039 | pictilisib -0.025 | crizotinib -0.002 | [1] -0.035 | duvelisib -0.002 | gandotinib -0.007 | tozasertib -0.021 | doramapimod 0.05 | bafetinib 0.006 | [2] 0.019 | nilotinib -0.024 | [3] -0.008 | dasatinib -0.027 | [4] -0.003 | [5] -0.014 | quisinostat -0.02 | tipifarnib 0.012 | [6] 0.012 | [7] 0.004 | [8] -0.026

Random excerpt: 2 entries already listed.
DNAAF2 (UniProt Q9NVR5)
inactive: lapatinib -0.007 | pictilisib 0 | crizotinib 0.036 | [1] 0.011 | duvelisib 0.03 | gandotinib 0.016 | tozasertib 0.053 | doramapimod 0.004 | bafetinib 0.017 | [2] 0 | nilotinib -0.022 | [3] 0.05 | dasatinib 0.005 | [4] 0.034 | [5] -0.017 | quisinostat -0.011 | tipifarnib -0.002 | [6] -0.011 | [7] 0.008 | [8] -0.012

DKC1 (UniProt O60832)
inactive: lapatinib -0.039 | pictilisib -0.025 | crizotinib -0.002 | [1] -0.035 | duvelisib -0.002 | gandotinib -0.007 | tozasertib -0.021 | doramapimod 0.05 | bafetinib 0.006 | [2] 0.019 | nilotinib -0.024 | [3] -0.008 | dasatinib -0.027 | [4] -0.003 | [5] -0.014 | quisinostat -0.02 | tipifarnib 0.012 | [6] 0.012 | [7] 0.004 | [8] -0.026

Additional records.

DNM2 (UniProt P50570)
inactive: lapatinib -0.003 | pictilisib 0.022 | crizotinib -0.013 | [1] 0.021 | duvelisib -0.007 | gandotinib -0.076 | tozasertib 0.001 | doramapimod 0.033 | bafetinib -0.011 | [2] 0.035 | nilotinib 0 | [3] -0.015 | dasatinib -0.045 | [4] -0.016 | [5] 0.028 | quisinostat 0.016 | tipifarnib 0.011 | [6] 0.034 | [7] 0.037 | [8] 0.009

DNAJB1 (UniProt P25685)
inactive: lapatinib 0.018 | pictilisib 0.049 | crizotinib -0.004 | [1] -0.022 | duvelisib 0.001 | gandotinib 0.036 | tozasertib -0.015 | doramapimod 0.1 | bafetinib 0.009 | [2] 0.001 | nilotinib -0.008 | [3] 0.003 | dasatinib -0.047 | [4] -0.017 | [5] 0.004 | quisinostat 0.007 | tipifarnib -0.036 | [6] 0.003 | [7] 0.01 | [8] 0.013

DNAJC2 (UniProt Q99543)
inactive: lapatinib 0.016 | pictilisib 0.026 | crizotinib 0.02 | [1] 0.004 | duvelisib -0.008 | gandotinib -0.035 | tozasertib -0.009 | doramapimod 0.017 | bafetinib -0.02 | [2] 0.012 | nilotinib -0.014 | [3] -0.011 | dasatinib 0.007 | [4] 0.001 | [5] 0.042 | quisinostat 0.06 | tipifarnib 0.011 | [6] 0.029 | [7] -0.004 | [8] -0.011

DNAH9 (UniProt Q9NYC9)
inactive: lapatinib -0.076 | pictilisib 0.005 | crizotinib -0.018 | [1] -0.04 | duvelisib -0.039 | gandotinib 0.017 | tozasertib -0.021 | doramapimod -0.023 | bafetinib -0.051 | [2] 0.016 | nilotinib -0.078 | [3] 0.009 | dasatinib -0.011 | [4] 0.032 | [5] -0.042 | quisinostat -0.043 | tipifarnib 0.054 | [6] -0.006 | [7] -0.059 | [8] -0.027

DMAP1 (UniProt Q9NPF5)
inactive: lapatinib 0.059 | pictilisib -0.041 | crizotinib -0.074 | [1] -0.034 | duvelisib 0.063 | gandotinib -0.043 | tozasertib 0.061 | doramapimod 0.043 | bafetinib -0.211 | [2] -0.003 | nilotinib -0.007 | [3] 0.117 | dasatinib -0.019 | [4] 0.009 | [5] 0.046 | quisinostat -0.087 | tipifarnib -0.095 | [6] 0.099 | [7] 0.007 | [8] 0.004

DHPS (UniProt P49366)
inactive: lapatinib -0.013 | pictilisib -0.033 | crizotinib -0.063 | [1] -0.042 | duvelisib 0.006 | gandotinib 0.045 | tozasertib -0.013 | doramapimod 0.023 | bafetinib 0.052 | [2] 0.022 | nilotinib 0.019 | [3] 0.002 | dasatinib 0.017 | [4] 0.028 | [5] -0.02 | quisinostat -0.08 | tipifarnib 0.021 | [6] 0 | [7] 0.033 | [8] 0.011

DHX37 (UniProt Q8IY37)
inactive: lapatinib 0.017 | pictilisib 0.098 | crizotinib -0.092 | [1] 0.156 | duvelisib -0.019 | gandotinib -0.146 | tozasertib -0.026 | doramapimod -0.042 | bafetinib 0.056 | [2] -0.084 | nilotinib -0.013 | [3] 0.013 | dasatinib -0.3 | [4] -0.021 | [5] 0.032 | quisinostat 0.104 | tipifarnib -0.005 | [6] 0.038 | [7] -0.061 | [8] 0.155

DHX9 (UniProt Q08211)
inactive: lapatinib -0.009 | pictilisib 0 | crizotinib -0.033 | [1] 0.031 | duvelisib 0.023 | gandotinib -0.046 | tozasertib -0.028 | doramapimod 0.015 | bafetinib -0.023 | [2] 0.005 | nilotinib -0.015 | [3] 0.014 | dasatinib 0.008 | [4] -0.014 | [5] 0.02 | quisinostat -0.057 | tipifarnib 0.01 | [6] 0.017 | [7] -0.005 | [8] -0.025

DHX8 (UniProt Q14562)
inactive: lapatinib 0.009 | pictilisib -0.03 | crizotinib 0.023 | [1] -0.079 | duvelisib 0.009 | gandotinib 0.019 | tozasertib 0.058 | doramapimod 0.063 | bafetinib 0.006 | [2] 0.085 | nilotinib -0.038 | [3] -0.086 | dasatinib 0.011 | [4] -0.045 | [5] 0.028 | quisinostat 0.035 | tipifarnib 0.001 | [6] -0.095 | [7] -0.001 | [8] 0.031

DLG3 isoform 2 (UniProt Q92796)
inactive: lapatinib 0.008 | pictilisib 0.073 | crizotinib -0.01 | [1] -0.047 | duvelisib 0.125 | gandotinib 0 | tozasertib 0.097 | doramapimod 0.043 | bafetinib 0.055 | [2] 0.065 | nilotinib -0.036 | [3] 0.027 | dasatinib -0.062 | [4] 0.146 | [5] -0.004 | quisinostat -0.007 | tipifarnib 0.085 | [6] -0.03 | [7] -0.031 | [8] -0.049

DOK3 (UniProt Q7L591)
inactive: lapatinib -0.024 | pictilisib 0.042 | crizotinib 0.01 | [1] -0.115 | duvelisib 0.02 | gandotinib 0.293 | tozasertib -0.035 | doramapimod -0.003 | bafetinib -0.044 | [2] 0.305 | nilotinib -0.015 | [3] 0.016 | dasatinib -0.046 | [4] 0.18 | [5] 0.057 | quisinostat -0.008 | tipifarnib -0.004 | [6] -0.004 | [7] -0.014 | [8] 0.022
